Measured data: PubChem BioAssay AID1259405 (NCATS, 2018)
Assay: 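Knock-downs that lift recombinant protein yield in hamster ovary cells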 (primary screen). System: Chinese hamster CHO-K1 ovary cells with stable secreted eGFP expression. Reagent: single siRNA against mouse genes, 0.8 pmol siRNA per well (2 µl of 400 nM stock). Time to read-out: 3 days. Detection: 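Percent of the per-plate non-targeting control median for intracellular GFP per well by laser scanning cytometry and for cell viability by ATP luminescence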. Direction: GFP, % of control: higher = more GFP per well, higher productivity; viability (ATP), % of control: higher = more viable cells (more ATP). Active means: 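a knock-down is called active if GFP reaches 120% or more of non-targeting control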.
The whole screen tested about 50,000 reagents; below is an unselected part. In the full data, about 4,000 (8%) were called active. 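Mouse siRNA library applied to hamster cells; one well for each siRNA.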 Reagents against one gene are numbered here.

gene knocked down	reagent	GFP, % of control	viability (ATP), % of control	activity call
Ugp2 (UDP-glucose pyrophosphorylase 2)	1	44.6	35.8	inactive
Ugp2 (UDP-glucose pyrophosphorylase 2)	2	40.4	73.6	inactive
Ugp2 (UDP-glucose pyrophosphorylase 2)	3	72	72.4	inactive
Doc2b (double C2, beta)	1	67.4	87.7	inactive
Doc2b (double C2, beta)	2	145	92.2	active
Doc2b (double C2, beta)	3	63.3	89.5	inactive
Heatr5b (HEAT repeat containing 5B)	1	80.7	72.3	inactive
Heatr5b (HEAT repeat containing 5B)	2	40.4	51.4	inactive
Heatr5b (HEAT repeat containing 5B)	3	68.9	84.9	inactive
Npb (neuropeptide B)	1	114	89.2	inactive
Npb (neuropeptide B)	2	81.7	84.8	inactive
Npb (neuropeptide B)	3	75.7	72.3	inactive
Tssc4 (tumor-suppressing subchromosomal transferable fragment 4)	1	123	102	active
Tssc4 (tumor-suppressing subchromosomal transferable fragment 4)	2	121	109	active
Tssc4 (tumor-suppressing subchromosomal transferable fragment 4)	3	84.3	84.9	inactive
Lgi1 (leucine-rich repeat LGI family, member 1)	1	115	62.1	inactive
Lgi1 (leucine-rich repeat LGI family, member 1)	2	61.3	80.8	inactive
Lgi1 (leucine-rich repeat LGI family, member 1)	3	84.8	83.9	inactive
Trpm8	1	61.3	62.1	inactive
Trpm8	2	103	119	inactive
Trpm8	3	68.7	75.7	inactive
Slc39a10	1	138	75.8	active
Slc39a10	2	90.7	79.2	inactive
Slc39a10	3	70.1	94.7	inactive
Traf1 (TNF receptor-associated factor 1)	1	71.5	77.9	inactive
Traf1 (TNF receptor-associated factor 1)	2	70.6	51.5	inactive
Traf1 (TNF receptor-associated factor 1)	3	48.5	53.5	inactive
Dhx57 (DExH-box helicase 57)	1	114	122	inactive
Dhx57 (DExH-box helicase 57)	2	72.9	80.8	inactive
Dhx57 (DExH-box helicase 57)	3	68	73.4	inactive
Ergic1 (endoplasmic reticulum-golgi intermediate compartment 1)	1	98.6	127	inactive
Ergic1 (endoplasmic reticulum-golgi intermediate compartment 1)	2	102	99.5	inactive
Ergic1 (endoplasmic reticulum-golgi intermediate compartment 1)	3	115	46.1	inactive
Ganab (alpha glucosidase 2 alpha neutral subunit)	1	58	47.3	inactive
Ganab (alpha glucosidase 2 alpha neutral subunit)	2	66.6	102	inactive
Ganab (alpha glucosidase 2 alpha neutral subunit)	3	51.8	59.1	inactive
Pirb (paired Ig-like receptor B)	1	64	61.2	inactive
Pirb (paired Ig-like receptor B)	2	58.6	70.4	inactive
Pirb (paired Ig-like receptor B)	3	97	71.4	inactive
Srd5a3 (steroid 5 alpha-reductase 3)	1	99.5	95.8	inactive
Srd5a3 (steroid 5 alpha-reductase 3)	2	90.1	60.4	inactive
Chst4 (carbohydrate sulfotransferase 4)	1	111	106	inactive
Chst4 (carbohydrate sulfotransferase 4)	2	54.9	122	inactive
Chst4 (carbohydrate sulfotransferase 4)	3	112	110	inactive
Pgm2l1 (phosphoglucomutase 2-like 1)	1	58.2	64.1	inactive
Pgm2l1 (phosphoglucomutase 2-like 1)	2	51.6	80.1	inactive
Pgm2l1 (phosphoglucomutase 2-like 1)	3	51.8	43.1	inactive
Myl12b (myosin, light chain 12B, regulatory)	1	74.6	76	inactive
Myl12b (myosin, light chain 12B, regulatory)	2	88	66.5	inactive
Kcnj6 (potassium inwardly-rectifying channel, subfamily J, member 6)	1	127	106	active
Kcnj6 (potassium inwardly-rectifying channel, subfamily J, member 6)	2	111	59.1	inactive
Kcnj6 (potassium inwardly-rectifying channel, subfamily J, member 6)	3	96.5	67.8	inactive
Clec1b (C-type lectin domain family 1, member b)	1	27.4	26.8	inactive
Clec1b (C-type lectin domain family 1, member b)	2	74.6	83.7	inactive
Clec1b (C-type lectin domain family 1, member b)	3	68.7	67.6	inactive
Exo1 (exonuclease 1)	1	60.1	72.1	inactive
Exo1 (exonuclease 1)	2	83.1	97.6	inactive
Exo1 (exonuclease 1)	3	53.7	54	inactive
Rhox5 (reproductive homeobox 5)	1	114	108	inactive
Rhox5 (reproductive homeobox 5)	2	81.9	62.5	inactive
Rhox5 (reproductive homeobox 5)	3	125	57.7	active
Ctnnd1 (catenin delta 1)	1	70.7	93.1	inactive
Ctnnd1 (catenin delta 1)	2	147	98.5	active
Ctnnd1 (catenin delta 1)	3	63.5	74.4	inactive
Sclt1 (sodium channel and clathrin linker 1)	1	73.7	56.7	inactive
Sclt1 (sodium channel and clathrin linker 1)	2	91.2	92.9	inactive
Sclt1 (sodium channel and clathrin linker 1)	3	89.1	65	inactive
Or4c100 (olfactory receptor family 4 subfamily C member 100)	1	57.4	36.6	inactive
Or4c100 (olfactory receptor family 4 subfamily C member 100)	2	71.1	81	inactive
Or4c100 (olfactory receptor family 4 subfamily C member 100)	3	111	67.7	inactive
Naxe (NAD(P)HX epimerase)	1	42.6	44	inactive
Naxe (NAD(P)HX epimerase)	2	51.5	70.3	inactive
Naxe (NAD(P)HX epimerase)	3	61.7	33.4	inactive
Lrpprc (leucine-rich PPR-motif containing)	1	70.3	118	inactive
Lrpprc (leucine-rich PPR-motif containing)	2	83	81.2	inactive
Lrpprc (leucine-rich PPR-motif containing)	3	54.2	72.6	inactive
Slbp (stem-loop binding protein)	1	57.9	45.2	inactive
Slbp (stem-loop binding protein)	2	94.4	62.1	inactive
Slbp (stem-loop binding protein)	3	63.5	42	inactive
Mug7-ps (murinoglobulin 7, pseudogene)	1	99.2	94.3	inactive
Mug7-ps (murinoglobulin 7, pseudogene)	2	58.4	57	inactive
Mug7-ps (murinoglobulin 7, pseudogene)	3	105	68.4	inactive
Nrip1 (nuclear receptor interacting protein 1)	1	80.5	91.9	inactive
Nrip1 (nuclear receptor interacting protein 1)	2	248	134	active
Nrip1 (nuclear receptor interacting protein 1)	3	80.5	91.9	inactive
Nrip1 (nuclear receptor interacting protein 1)	4	61.8	79.7	inactive
Nrip1 (nuclear receptor interacting protein 1)	5	93.7	87	inactive

Active calls (from the list above):
gene knocked down	reagent	GFP, % of control	viability (ATP), % of control	activity call
Doc2b (double C2, beta)	2	145	92.2	active
Tssc4 (tumor-suppressing subchromosomal transferable fragment 4)	1	123	102	active
Tssc4 (tumor-suppressing subchromosomal transferable fragment 4)	2	121	109	active
Slc39a10	1	138	75.8	active
Kcnj6 (potassium inwardly-rectifying channel, subfamily J, member 6)	1	127	106	active
Rhox5 (reproductive homeobox 5)	3	125	57.7	active
Ctnnd1 (catenin delta 1)	2	147	98.5	active
Nrip1 (nuclear receptor interacting protein 1)	2	248	134	active
